# The list shows a part of the results. Most values lie at the level of the controls, where differences are scatter.
# Protein sequences, listed by entry. Tags and fused reporters are not part of them. Lines headed by an entry give the natural chain unless they say otherwise; changes in a name come on top.
# UniProt Q14146: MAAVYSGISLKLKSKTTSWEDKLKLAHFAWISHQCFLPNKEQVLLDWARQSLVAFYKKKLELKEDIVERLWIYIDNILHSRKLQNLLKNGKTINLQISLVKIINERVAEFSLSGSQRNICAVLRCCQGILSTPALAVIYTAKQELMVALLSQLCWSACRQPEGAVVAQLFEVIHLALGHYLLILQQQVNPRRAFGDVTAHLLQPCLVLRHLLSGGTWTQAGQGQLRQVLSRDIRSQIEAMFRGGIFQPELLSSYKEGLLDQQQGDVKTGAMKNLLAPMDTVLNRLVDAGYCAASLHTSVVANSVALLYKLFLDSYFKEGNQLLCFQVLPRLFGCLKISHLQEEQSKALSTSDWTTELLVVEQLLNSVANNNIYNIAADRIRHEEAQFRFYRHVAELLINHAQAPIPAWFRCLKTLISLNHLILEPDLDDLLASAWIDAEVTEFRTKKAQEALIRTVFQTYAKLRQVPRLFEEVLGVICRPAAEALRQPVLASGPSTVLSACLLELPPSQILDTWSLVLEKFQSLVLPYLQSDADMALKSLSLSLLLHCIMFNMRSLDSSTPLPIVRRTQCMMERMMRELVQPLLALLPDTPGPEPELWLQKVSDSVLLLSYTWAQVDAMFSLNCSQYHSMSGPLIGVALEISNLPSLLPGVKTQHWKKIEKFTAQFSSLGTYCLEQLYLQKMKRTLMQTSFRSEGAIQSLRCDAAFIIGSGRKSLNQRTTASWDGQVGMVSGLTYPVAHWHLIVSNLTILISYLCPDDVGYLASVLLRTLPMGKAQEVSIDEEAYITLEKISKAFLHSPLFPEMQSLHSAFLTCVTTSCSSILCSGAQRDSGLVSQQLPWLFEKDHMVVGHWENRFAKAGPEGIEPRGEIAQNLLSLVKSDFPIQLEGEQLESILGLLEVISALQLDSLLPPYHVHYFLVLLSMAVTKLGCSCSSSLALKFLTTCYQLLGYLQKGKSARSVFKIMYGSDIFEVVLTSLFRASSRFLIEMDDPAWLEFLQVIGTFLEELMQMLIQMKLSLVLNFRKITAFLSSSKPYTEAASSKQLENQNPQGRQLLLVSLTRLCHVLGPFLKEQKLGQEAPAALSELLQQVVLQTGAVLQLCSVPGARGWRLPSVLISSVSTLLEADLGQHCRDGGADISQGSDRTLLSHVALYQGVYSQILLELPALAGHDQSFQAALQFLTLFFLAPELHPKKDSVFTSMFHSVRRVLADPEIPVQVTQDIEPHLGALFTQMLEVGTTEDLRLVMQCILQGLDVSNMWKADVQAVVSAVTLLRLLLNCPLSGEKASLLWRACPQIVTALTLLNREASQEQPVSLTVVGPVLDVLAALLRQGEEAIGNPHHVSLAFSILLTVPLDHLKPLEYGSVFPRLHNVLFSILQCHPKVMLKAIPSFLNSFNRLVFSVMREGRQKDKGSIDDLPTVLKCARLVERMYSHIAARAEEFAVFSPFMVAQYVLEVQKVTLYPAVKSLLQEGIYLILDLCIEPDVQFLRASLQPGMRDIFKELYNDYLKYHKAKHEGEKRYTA
# UniProt Q15022: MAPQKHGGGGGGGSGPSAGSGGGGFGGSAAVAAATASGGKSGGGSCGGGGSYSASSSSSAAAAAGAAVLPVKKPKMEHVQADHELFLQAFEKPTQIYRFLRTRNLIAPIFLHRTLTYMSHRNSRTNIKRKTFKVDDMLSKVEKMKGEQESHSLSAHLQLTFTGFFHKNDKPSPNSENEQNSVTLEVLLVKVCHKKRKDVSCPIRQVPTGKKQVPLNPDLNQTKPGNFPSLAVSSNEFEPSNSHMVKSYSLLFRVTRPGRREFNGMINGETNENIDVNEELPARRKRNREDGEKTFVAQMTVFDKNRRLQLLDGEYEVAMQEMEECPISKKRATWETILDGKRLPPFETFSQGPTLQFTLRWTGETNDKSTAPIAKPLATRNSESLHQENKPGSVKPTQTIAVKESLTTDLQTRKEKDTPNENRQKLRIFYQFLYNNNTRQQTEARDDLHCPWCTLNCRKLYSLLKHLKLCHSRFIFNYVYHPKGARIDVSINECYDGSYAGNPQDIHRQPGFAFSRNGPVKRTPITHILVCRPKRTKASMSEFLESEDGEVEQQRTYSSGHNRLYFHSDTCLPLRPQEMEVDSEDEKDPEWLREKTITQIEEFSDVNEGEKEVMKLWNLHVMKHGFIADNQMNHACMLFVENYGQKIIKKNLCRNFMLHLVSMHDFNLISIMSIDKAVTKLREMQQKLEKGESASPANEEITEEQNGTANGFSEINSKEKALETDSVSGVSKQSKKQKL
# UniProt Q13423: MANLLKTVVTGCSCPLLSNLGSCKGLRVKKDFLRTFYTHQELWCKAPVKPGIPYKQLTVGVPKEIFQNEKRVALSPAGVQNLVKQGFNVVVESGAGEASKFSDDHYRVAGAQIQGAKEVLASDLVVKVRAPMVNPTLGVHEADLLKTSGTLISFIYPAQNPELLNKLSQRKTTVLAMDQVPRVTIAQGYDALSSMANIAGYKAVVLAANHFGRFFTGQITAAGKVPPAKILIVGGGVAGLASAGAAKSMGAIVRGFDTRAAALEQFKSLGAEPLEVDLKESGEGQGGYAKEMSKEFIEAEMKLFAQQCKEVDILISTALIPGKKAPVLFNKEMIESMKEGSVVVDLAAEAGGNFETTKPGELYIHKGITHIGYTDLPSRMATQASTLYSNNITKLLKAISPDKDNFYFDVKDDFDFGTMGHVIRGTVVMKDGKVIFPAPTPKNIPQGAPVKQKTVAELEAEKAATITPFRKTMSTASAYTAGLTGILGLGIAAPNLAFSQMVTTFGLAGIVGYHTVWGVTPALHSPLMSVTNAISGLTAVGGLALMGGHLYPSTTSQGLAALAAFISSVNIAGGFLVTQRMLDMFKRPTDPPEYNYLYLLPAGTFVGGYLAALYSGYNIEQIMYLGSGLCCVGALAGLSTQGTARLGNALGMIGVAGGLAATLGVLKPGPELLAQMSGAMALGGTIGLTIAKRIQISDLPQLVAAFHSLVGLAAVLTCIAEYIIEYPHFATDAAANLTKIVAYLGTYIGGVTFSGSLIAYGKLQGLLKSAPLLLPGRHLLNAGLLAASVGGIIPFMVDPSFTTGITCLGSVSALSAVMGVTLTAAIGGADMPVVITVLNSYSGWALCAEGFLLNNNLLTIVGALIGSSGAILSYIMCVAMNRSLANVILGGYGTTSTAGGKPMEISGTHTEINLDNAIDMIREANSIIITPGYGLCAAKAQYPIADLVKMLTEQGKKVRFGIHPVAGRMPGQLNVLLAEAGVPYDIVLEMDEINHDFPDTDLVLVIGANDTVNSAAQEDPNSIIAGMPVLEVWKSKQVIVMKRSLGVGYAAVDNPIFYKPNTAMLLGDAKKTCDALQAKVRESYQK
# UniProt Q13277: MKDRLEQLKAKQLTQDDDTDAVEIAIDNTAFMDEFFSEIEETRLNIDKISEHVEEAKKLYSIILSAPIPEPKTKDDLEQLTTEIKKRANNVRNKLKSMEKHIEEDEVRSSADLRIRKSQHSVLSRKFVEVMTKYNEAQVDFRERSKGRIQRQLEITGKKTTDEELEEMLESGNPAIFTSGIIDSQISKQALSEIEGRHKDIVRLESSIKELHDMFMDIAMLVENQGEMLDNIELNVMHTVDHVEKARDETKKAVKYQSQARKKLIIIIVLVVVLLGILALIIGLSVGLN
# UniProt Q14CB8: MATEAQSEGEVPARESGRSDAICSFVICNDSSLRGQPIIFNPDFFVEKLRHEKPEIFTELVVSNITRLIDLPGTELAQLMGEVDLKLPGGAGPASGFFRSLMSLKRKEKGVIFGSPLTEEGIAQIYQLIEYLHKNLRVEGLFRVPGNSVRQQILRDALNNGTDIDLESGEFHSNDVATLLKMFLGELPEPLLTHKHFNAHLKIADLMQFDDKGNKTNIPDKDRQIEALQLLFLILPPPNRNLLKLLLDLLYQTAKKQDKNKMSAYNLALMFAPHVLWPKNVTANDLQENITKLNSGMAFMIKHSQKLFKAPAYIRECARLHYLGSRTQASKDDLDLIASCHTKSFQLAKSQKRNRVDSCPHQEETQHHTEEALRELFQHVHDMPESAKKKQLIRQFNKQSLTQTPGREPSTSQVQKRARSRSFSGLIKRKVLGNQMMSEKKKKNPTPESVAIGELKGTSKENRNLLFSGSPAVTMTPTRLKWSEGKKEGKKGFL
# UniProt Q13569: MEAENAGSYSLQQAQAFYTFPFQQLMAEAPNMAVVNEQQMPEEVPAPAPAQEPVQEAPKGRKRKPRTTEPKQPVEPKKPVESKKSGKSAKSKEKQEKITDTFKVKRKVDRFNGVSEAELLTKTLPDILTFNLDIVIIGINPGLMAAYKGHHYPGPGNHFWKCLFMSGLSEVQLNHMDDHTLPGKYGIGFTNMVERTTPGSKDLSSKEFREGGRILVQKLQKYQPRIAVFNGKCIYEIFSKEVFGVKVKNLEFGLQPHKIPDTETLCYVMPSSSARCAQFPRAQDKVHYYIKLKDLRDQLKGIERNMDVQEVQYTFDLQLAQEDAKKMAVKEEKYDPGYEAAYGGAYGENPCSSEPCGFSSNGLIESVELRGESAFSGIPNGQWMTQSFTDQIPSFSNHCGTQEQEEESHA
# UniProt Q14247: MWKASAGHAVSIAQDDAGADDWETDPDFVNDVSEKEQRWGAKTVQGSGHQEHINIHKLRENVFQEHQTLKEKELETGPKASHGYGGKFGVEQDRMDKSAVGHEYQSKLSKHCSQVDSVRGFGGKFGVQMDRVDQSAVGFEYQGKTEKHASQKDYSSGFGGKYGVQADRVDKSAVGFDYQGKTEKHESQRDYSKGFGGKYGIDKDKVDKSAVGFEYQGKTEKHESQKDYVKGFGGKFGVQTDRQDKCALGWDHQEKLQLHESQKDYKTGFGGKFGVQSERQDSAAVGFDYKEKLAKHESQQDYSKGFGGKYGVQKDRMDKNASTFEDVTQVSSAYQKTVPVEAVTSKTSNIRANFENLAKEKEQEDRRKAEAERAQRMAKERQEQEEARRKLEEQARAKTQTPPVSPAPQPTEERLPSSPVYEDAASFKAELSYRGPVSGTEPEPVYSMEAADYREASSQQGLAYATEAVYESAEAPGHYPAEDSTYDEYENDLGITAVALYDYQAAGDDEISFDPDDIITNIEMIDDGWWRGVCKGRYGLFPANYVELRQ
# UniProt Q14094: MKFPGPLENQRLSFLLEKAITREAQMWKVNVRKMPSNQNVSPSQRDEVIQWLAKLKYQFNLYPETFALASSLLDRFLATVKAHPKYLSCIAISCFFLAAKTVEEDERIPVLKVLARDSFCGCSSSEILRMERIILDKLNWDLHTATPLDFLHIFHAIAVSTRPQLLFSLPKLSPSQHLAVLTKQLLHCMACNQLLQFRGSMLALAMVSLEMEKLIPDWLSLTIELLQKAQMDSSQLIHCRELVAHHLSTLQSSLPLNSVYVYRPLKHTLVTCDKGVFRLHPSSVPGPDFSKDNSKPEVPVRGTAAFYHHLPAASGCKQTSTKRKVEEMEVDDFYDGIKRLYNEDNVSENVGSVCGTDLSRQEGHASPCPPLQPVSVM
# Compound: CN[C@@H]1C[C@H]2O[C@@](C)([C@@H]1OC)n1c3ccccc3c3c4c(c5c6ccccc6n2c5c31)C(=O)NC4 [staurosporine]
# Assay: log2 fold change of tryptic peptide abundance, ligand vs vehicle (limited proteolysis) (log2 ratio); higher = more trypsin-susceptible (destabilized)
# Details: ligand concentration: 20 uM; sample: K562 cleared lysate; digestion: 4 min, 22 C (HT-PELSA RT4min, Orbitrap Astral)
row,Target,log2 fold change
1,"URB2 (peptide sequence: ASLQPGMR, peptide start residue: 1491) (UniProt Q14146)",0.497
2,"SUZ12 (peptide sequence: TLTYMSHR, peptide start residue: 114) (UniProt Q15022)",0.225
3,"NNT (peptide sequence: VALSPAGVQNLVK, peptide start residue: 72) (UniProt Q13423)",0.109
4,"STX3 (peptide sequence: HIEEDEVR, peptide start residue: 101) (UniProt Q13277)",-0.318
5,"ARHGAP19 (peptide sequence: MFLGELPEPLLTHK, peptide start residue: 182) (UniProt Q14CB8)",0.32
6,"TDG (peptide sequence: GHHYPGPGNHFWK, peptide start residue: 149) (UniProt Q13569)",0.611
7,"CTTN (peptide sequence: FGVQMDR, peptide start residue: 125) (UniProt Q14247)",-0.381
8,"UniProt Q14094 (peptide sequence: LSPSQHLAVLTK, peptide start residue: 172)",0.566
